Test results as given in article PMC6610666.
Results are given in words; binding and its absence hold for the method and conditions named. Binding seen in cells or lysates may run through a third protein. Some entries that bind do so weakly or less than the wild type.

The chains behind the UniProt entries cited, without tags or fusion partners.
UniProt Q8R0K9: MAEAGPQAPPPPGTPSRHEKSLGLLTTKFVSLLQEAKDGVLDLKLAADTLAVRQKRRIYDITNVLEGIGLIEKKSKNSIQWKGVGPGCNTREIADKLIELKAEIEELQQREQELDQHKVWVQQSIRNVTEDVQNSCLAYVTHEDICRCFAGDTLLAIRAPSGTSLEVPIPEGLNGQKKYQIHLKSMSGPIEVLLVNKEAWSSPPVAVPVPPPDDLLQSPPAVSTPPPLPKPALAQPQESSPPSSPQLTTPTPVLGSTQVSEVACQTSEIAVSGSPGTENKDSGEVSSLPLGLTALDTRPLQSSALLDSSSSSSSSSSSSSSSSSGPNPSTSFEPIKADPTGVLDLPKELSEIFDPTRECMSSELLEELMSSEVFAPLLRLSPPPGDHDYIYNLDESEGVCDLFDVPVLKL

Molecular target: GFP-E2F4 (wild-type mouse E2F4 fused to GFP) (mouse) (UniProt Q8R0K9)
Assay: co-IP; GFP-Trap (ChromoTek) on TKO mESCs transfected with the GFP-WT (GFP-E2F4) vector, 5.0 x 10^6 cells per pull-down; partners detected by immunoassay

Row | binding | Binder
1 | binds | YEATS2 (mouse ES cells) (protein, UniProt Q3TUF7 1-1407) MSGIKRTIKETDPDYEDVSVALPNKRHKAIESSARDAAVQKIETIIKEQFALEMKNKEHEIDVIDQRLIEARRMMDKLRACIVANYYASAGLLKVSEGLKTFDPMAFNHPAIKKFLESPSRSSSPTNQRSETPSANHSESDSLSQHNDFLSDKDNNSNVDVEERPPSTGEQRPSRKAGRDTSSISGSHKRELRNADLTGDETSRLFVKKTIVVGNVSKYIPPDKREENDQSTHKWMVYVRGSRREPSINHFVKKVWFFLHPSYKPNDLVEVREPPFHLTRRGWGEFPVRVQVHFKDSQNKRIDIIHNLKLDRTYTGLQTLGAETVVDVELHRHSLGEDSVYPQSSESDVCDAPPPTLTLPAAVKASAVAQSPEPAAAAPVGEGFPETTEAERHSTFYSLPSSLERTPTKVTTAQKVTFSSHGNSAFQPIASSCKIVPQSQVPNPESPGKSFQPITMSCKIVSGSPISTPSPSPLPRTPTSTPVHLKQGTASSGVSNPHVIVDKPGQVIGASTPSTGSPTSKLPVASQASQGTGSPIPKIHGSSFLTSTVKQEESLFASMPPLCPIGSHPKVQSPKAVTGGLGAFTKVIIKQEPGEAPHVSTTGAASQSAFPQYVTVKGGHMIAVSPQKQVISAGEGTTQSPKIAPSKVVGVPVGSALPSTVKQAVAISSGQILVAKASSSVTKAVGPKQVVTQGVAKAIVSGGGGTIVAQPVQTLTKTQVTAAGPQKSGSQGSVMATLQLPATNLANLANLPPGTKLYLTTNSKNPSGKGKLLLIPQGAILRATNNANLQSGSAAAGGSGSSGAGGGSGGGGGSGAGGTPSTSGPGGGPQHLTYTSYILKQTPQGTFLVGQPSPQTPGKQLTTASVVQGTLGVSSSSAQGQQTLKVISGQKTTLFTQAATAGQASLLKLPDNTLKSVPAAPQLAKPGTTMLRVAGGVITAAPSPAVAFSANGAVHQSEGSTPVSSSVGSIIKTPGQPQVCVSQATMATCKGPAAVAGTAASLVSAPSSISGKATVSGLLKVHSAQSSPQQAVLTIPSQLKPLSINTSGGVQTVLMPVNKVVQSFSTSKLPTTVLPISVPNQAAPSSAPVAIAKVKTEPETPGPNCISQENQVAVKTEESSELSNYVIKVDHLETIQQLLTAVVKKIPLITAKGDDASCFSAKSLEQYYGWNIGKRRAAEWQRAMTVRKVLQEILEKNPRFHHLTPLKTKHIAHWCRCHGYTPPDPESLRHDGDSIEDVLTQIDSEPECLSSFSTADDLCRKLEDLQQFQKREPENEEEVDILSLSEPLKTNIKKEQEEKQEEMRFYLPPTPGSGFVGDITQKIGITLQPVALHRNMYASVVEDMILKATEQLVSDILRQALAVGYQTASPNRIPKEITVSNIHQAICNIPFLDFLTNKHMGRLNEDQ
2 | binds | DP-1 (mouse ES cells) (protein, UniProt Q08639 1-410) MAKDASLIEANGELKVFIDQNLSPGKGVVSLVAVHPSTVNTLGKQLLPKTFGQSNVNITQQVVIGTPQRPAASNTIVVGSPHTPNTHFVSQNQTSDSSPWSAGKRNRKGEKNGKGLRHFSMKVCEKVQRKGTTSYNEVADELVAEFSAADNHILPNESAYDQKNIRRRVYDALNVLMAMNIISKEKKEIKWIGLPTNSAQECQNLEVERQRRLERIKQKQSQLQELILQQIAFKNLVQRNRQAEQQARRPPPPNSVIHLPFIIVNTSRKTVIDCSISNDKFEYLFNFDNTFEIHDDIEVLKRMGMACGLESGNCSAEDLKVARSLVPKALEPYVTEMAQGSIGGVFVTTTGSTSNGTRLSASDLSNGADGMLATSSNGSQYSGSRVETPVSYVGEDDDDDDDFNENDEED
